Reference: patent US9150632B2 (Indiana University Research and Technology Corporation, priority 2009, dated 2015)

Experiment: general procedure: Boc solid-phase peptide synthesis; Boc Thr(OBzl) Pam resin; methoxybenzhydrylamine resin; 4-methylbenzhydrylamine (MBHA) resin; HBTU (FastBoc single couplings); DEPBT for lactam peptides; PyBOP for on-resin l
Conditions: conjugation step

| Substance | difficulty met | final HPLC purity (analytical RP-HPLC, Zorbax C8, 214 nm, MALDI or ESI mass spectral analysis) | final HPLC purity (214 nm) |
| --- | --- | --- | --- |
| Glucagon Cys^24 Mal-PEG-20K | The product ratio had not significantly improved | ˜90% |  |
| Glucagon Cys^29 Mal-PEG-5K |  |  | greater than 95% |
